Data on five substances can be found in publication PMC4993455.

By UniProt entry, the sequences of proteins in these tests, tags left out. Where a name states a change or a piece, a line headed by the entry shows the natural chain unless it says otherwise. Chains listed by the source or under a name are the forms on record and can include a tag or linker. Residues count along the entry.
UniProt P13444: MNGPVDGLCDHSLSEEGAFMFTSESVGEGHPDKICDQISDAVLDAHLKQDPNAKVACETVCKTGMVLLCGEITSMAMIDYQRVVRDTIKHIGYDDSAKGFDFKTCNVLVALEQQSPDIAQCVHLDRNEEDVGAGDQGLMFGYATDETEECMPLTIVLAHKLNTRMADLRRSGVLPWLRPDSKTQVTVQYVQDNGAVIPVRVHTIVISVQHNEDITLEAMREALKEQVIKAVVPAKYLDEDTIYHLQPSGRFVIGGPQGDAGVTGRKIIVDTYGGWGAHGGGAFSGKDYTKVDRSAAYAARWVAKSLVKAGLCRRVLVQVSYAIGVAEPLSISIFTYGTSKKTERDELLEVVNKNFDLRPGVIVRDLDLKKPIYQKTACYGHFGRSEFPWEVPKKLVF
UniProt Q642A0: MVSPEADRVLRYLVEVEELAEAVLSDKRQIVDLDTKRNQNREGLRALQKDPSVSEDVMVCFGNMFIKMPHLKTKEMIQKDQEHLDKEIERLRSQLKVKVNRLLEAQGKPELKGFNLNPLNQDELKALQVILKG
GST-ΔN-PDRG1: residues 26-133 of Q642A0
GST-ΔNC-PDRG1: residues 26-106 of Q642A0
GST-ΔC-PDRG1 (Q642A0, form named): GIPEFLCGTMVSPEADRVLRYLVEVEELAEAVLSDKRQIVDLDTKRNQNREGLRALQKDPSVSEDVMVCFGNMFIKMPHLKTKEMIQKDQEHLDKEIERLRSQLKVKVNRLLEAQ
HA-PDRG1 (Q642A0, form named): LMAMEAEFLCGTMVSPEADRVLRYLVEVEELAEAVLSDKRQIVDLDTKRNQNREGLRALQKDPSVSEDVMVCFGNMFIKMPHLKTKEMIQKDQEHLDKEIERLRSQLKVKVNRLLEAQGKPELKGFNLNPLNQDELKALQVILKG

These are yes or no findings as the source states them, for the method shown. For some of these results: Binding seen in cells or lysates may run through a third protein. Some binding calls cover weakened binding; strength is not graded here.

Assay [1] deals with methionine adenosyltransferase α1 (MATα1), yeast two-hybrid fusion from pGBKT7-MAT1A (rat) (UniProt P13444). Nature of the assay: two-hybrid; AH109 yeast, bait pGBKT7-MAT1A, preys in pACT2 (rat liver Matchmaker cDNA library); growth on high stringency -Ade/-His/-Leu/-Trp SC medium; verified by cotransformation.
In assay [2] the target is GST-ΔC-PDRG1 (rat) (UniProt Q642A0). The assay is described as follows: pull-down; Glutathione-Sepharose loaded with GST-PDRG1 or truncated forms from E. coli extracts and washed; incubated 1 hour at 4°C with E. coli extracts overexpressing MATα1 (500 μg) plus excess GST extract (5 mg); blot with anti-MATα1; only the target purified.
In assay [3] the target is GST-ΔN-PDRG1 (rat) (UniProt Q642A0). The description is as above.
Assay [4] addresses GST-ΔNC-PDRG1 (rat) (UniProt Q642A0). The assay is described as above.
The target in assay [5] is HA-PDRG1 (rat) (UniProt Q642A0). Nature of the assay: co-IP; total lysates of CHO and HEK-293T cells transiently cotransfected with pFLAG-MAT and pHA-PDRG1; anti-FLAG M2 Affinity Gel or anti-HA on protein A Sepharose, overnight at 4°C; 50 mM Tris/HCl pH 7.5, 150 mM NaCl, 1 mM EDTA, 1% NP-40, 1 mM DTT.
Assay [6] addresses FLAG-MATα1 (rat) (UniProt P13444). Nature of the assay: co-IP; nuclear fractions of transiently cotransfected COS-7 and HEK 293T cells; anti-FLAG M2 Affinity Gel overnight at 4°C, blot with anti-HA.
For assay [7] the target is unchanged. The assay is described as follows: co-IP; cytosolic fractions of transiently cotransfected COS-7 and HEK 293T cells; anti-FLAG M2 Affinity Gel overnight at 4°C, blot with anti-HA.
The target is the same in assay [8]. The assay is described as follows: SEC; analytical gel filtration of nuclear fractions (100 μl) of HEK 293T cells overexpressing HA-PDRG1, FLAG-MATα1 or both on Superose 12 10/300 GL; fractions analysed by dot-blot. For orientation: SEC sorts molecules by how far they enter the pores of the column.
Assay [9] shares this target. The assay is described as follows: co-IP; total lysates of CHO and HEK-293T cells transiently cotransfected with pFLAG-MAT and pHA-PDRG1; anti-FLAG M2 Affinity Gel or anti-HA on protein A Sepharose, overnight at 4°C; 50 mM Tris/HCl pH 7.5, 150 mM NaCl, 1 mM EDTA, 1% NP-40, 1 mM DTT.

Turning to “methionine adenosyltransferase α1 (MATα1), yeast two-hybrid fusion from pGBKT7-MAT1A (from UniProt P13444 1-397) (enzyme)”, the binding entry in assay [1] was “binds”.

As for “recombinant methionine adenosyltransferase α1 (MATα1) (from UniProt P13444 1-397) (enzyme)”, the binding entry in assay [2], in [3] and in assay [4] was “binds” each time.

“p53 and DNA damage-regulated gene 1 protein (PDRG1), yeast two-hybrid prey in pACT2 (from UniProt Q642A0 1-133)”: in [1], the binding entry is on record as “binds”.

As to “FLAG-MATα1 (from UniProt P13444 1-397) (enzyme)”, in [5], the binding entry is “binds”.

As for HA-PDRG1 (from UniProt Q642A0 1-133), the binding result in [6] is recorded as “binds”; in assay [7], “no binding (condition: in cytosolic fractions)”; in assay [8], “binds”; in assay [9], “binds”.
